# Results deposited as PubChem BioAssay AID1053208 (Peter MacCallum Cancer Centre, 2014)
# Screen: 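Synthetic lethal interactions between gene loss and doxorubicin in osteosarcoma cells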 (primary screen)
# Cell system: mouse osteosarcoma cells, early-passage culture from an engineered mouse model of fibroblastic bone tumour
# Reagent: siRNA pool against mouse genes, 40 nM
# Time to read-out: about 120 h (48 h before drug, then 72 h with drug)
# Treatment: doxorubicin 100 nM for 72 h, roughly 30-40% inhibitory dose
# Measured: 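Viability read as ATP luminescence after 72 h of 100 nM doxorubicin or none, duplicate wells averaged, scaled to non-targeting siRNA, then expressed as robust z-scores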
# Reading the numbers: viability z-score with doxorubicin: higher = more viable cells under doxorubicin; viability z-score without drug: higher = more viable cells with knock-down alone; z-score of drug to no-drug ratio: higher = less drug sensitisation by knock-down
# Call rule: 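Called active if knock-down leaves viability unchanged without drug (z within -2 to 2) but lowers it with doxorubicin (z at or under -2)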
# The deposit covers about 17,000 reagents; shown is a part drawn at random. In the full data, 788 (4.7%) got an active call. 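Calls rest on z-score classes alone; an extra cut-off of viability at most 70% of control was not applied to them.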 A number with no mark means an inactive call. Not all columns of the deposit are shown.
Gene,PubChem SID,combined z-score class,viability z-score with doxorubicin,viability z-score without drug,z-score of drug to no-drug ratio
Adam7,SID152266430,no change with or without drug,-0.22,1.85,-1.24
Ccl8,SID152270362,no change with or without drug,0.9,0.51,0.67
Lpgat1,SID152342893,no change with or without drug,-0.79,-1.52,0.34
Fam111a,SID152342778,no change with or without drug,1.12,-0.51,1.69
Slc16a2,SID152297914,no change with or without drug,-1.69,-0.67,-1.24
Eya2,SID152324695,no change with or without drug,-0.45,0.51,-0.67
Trim61,SID152283456,no change with or without drug,-1.12,-1.18,-0.34
Kcnj12,SID152324905,no change with or without drug,-1.46,-1.52,-0.45
Dio1,SID152293882,no change with or without drug,-0.56,0.84,-1.01
Alg5,SID152330939,no change with or without drug,0,1.18,-0.67
Slc72a1,SID152285166,high cell count with doxorubicin only,2.02,1.52,1.12
Abi1,SID152332386,no change with or without drug,0.67,-0.34,1.12
Kcnj10,SID152293962,no change with or without drug,-1.35,-1.18,-0.56
Skint10,SID152267201,high cell count with doxorubicin only,2.25,1.85,1.12
Nr2f1,SID152264747,high cell count without drug only,1.12,2.02,-0.11
Iffo1,SID152291227,no change with or without drug,-0.67,-0.51,-0.22
Dio2,SID152268036,no change with or without drug,0.22,1.18,-0.45
Carhsp1,SID152292365,no change with or without drug,-0.9,0.34,-1.01
Hoxb3,SID152310543,no change with or without drug,-0.9,-1.18,0
Or5h17,SID152274044,no change with or without drug,0,0.17,0
St7l,SID152330561,no change with or without drug,-0.45,-0.17,-0.22

The list goes on; the last 2 above are carried over.
Gene,PubChem SID,combined z-score class,viability z-score with doxorubicin,viability z-score without drug,z-score of drug to no-drug ratio
Or5h17,SID152274044,no change with or without drug,0,0.17,0
St7l,SID152330561,no change with or without drug,-0.45,-0.17,-0.22
Ugt1a2,SID152332632,low cell count with doxorubicin only (active),-2.25,-0.17,-2.14
En2,SID152310215,no change with or without drug,-0.67,0.51,-0.9
Lrrc28,SID152313244,no change with or without drug,-0.9,0.84,-1.35
Cyp1b1,SID152311757,no change with or without drug,0,-0.67,0.56
BC048679,SID152317166,no change with or without drug,-1.8,-1.18,-1.01
Slitrk6,SID152337218,low cell count with doxorubicin only (active),-2.92,-0.84,-2.47
Sart1,SID152326215,no change with or without drug,-1.01,-0.17,-0.9
Nppb,SID152268049,no change with or without drug,-1.57,-0.51,-1.24
Znrf4,SID152273371,no change with or without drug,0.45,-1.52,1.8
Micu2,SID152312711,no change with or without drug,0,0.67,-0.34
Sf3b1,SID152297204,low cell count with doxorubicin only (active),-7.08,-1.35,-6.97
Adrb1,SID152309143,no change with or without drug,0.56,0.67,0.22
Rfx6,SID152266161,no change with or without drug,-0.11,0.67,-0.45
Pde4b,SID152305588,no change with or without drug,-0.34,-1.35,0.79
Fahd2a,SID152269221,no change with or without drug,0.67,1.01,0.11
Vmn1r30,SID152319815,no change with or without drug,-0.67,-1.01,0.11
Trim34a,SID152308764,high cell count with doxorubicin only,2.02,1.69,1.01
Klk8,SID152310622,no change with or without drug,0.34,1.85,-0.67
Kif23,SID152314040,no change with or without drug,1.01,-0.51,1.57
Wdcp,SID152260675,no change with or without drug,0.79,0,0.9
Or1e30,SID152294377,no change with or without drug,0,-0.84,0.67
Nle1,SID152334766,no change with or without drug,0.11,-0.67,0.67
Ppm1m,SID152297434,no change with or without drug,1.24,1.01,0.67
4930474M22Rik,SID152282384,no change with or without drug,-1.35,-0.17,-1.24
Abca6,SID152281911,no change with or without drug,1.12,0.17,1.12
Or4p8,SID152266039,no change with or without drug,-1.24,-0.84,-0.67
Cep295,SID152261315,no change with or without drug,0,-1.18,1.01
Or2o1,SID152295918,no change with or without drug,0.34,-0.34,0.67
Slc25a37,SID152322659,no change with or without drug,0.22,-1.18,1.24
Nomo1,SID152322455,no change with or without drug,-0.79,-0.84,-0.11
Pip,SID152334678,no change with or without drug,0.22,1.52,-0.67
Ms4a3,SID152302781,no change with or without drug,0,-0.17,0.22
Bmp5,SID152265049,low cell count without drug only,-1.57,-2.02,-0.22
Atpaf2,SID152317512,no change with or without drug,-0.67,-0.17,-0.45
Jag1,SID152278265,no change with or without drug,-1.8,-0.17,-1.69
Dgkk,SID152288138,no change with or without drug,0.22,0.84,-0.22
Tdrd7,SID152325913,no change with or without drug,-0.67,0.51,-0.9
Akap12,SID152301023,low cell count with doxorubicin only (active),-2.7,0.51,-3.04
Alox5,SID152323231,no change with or without drug,1.12,0.17,1.12
Ahctf1,SID152282923,low cell count with and without drug,-2.47,-2.87,-0.67
Bak1,SID152267051,high cell count with doxorubicin only,2.02,1.18,1.35
Or10c1,SID152336338,no change with or without drug,-1.8,-1.18,-1.01
